# This is one part of the list.
# Experiments:
# Test in all cases: glycan array binding signal (z-score within array); higher = stronger binding
# Conditions in all cases: glycan notation: IUPAC condensed, linker removed
# [1] = biological target: Gal(b1-3)GlcNAc(b1-6)[Gal(b1-3)]GalNAc
# Procedure, shortened: (§1)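 The binding signal is a Z-score computed within each array and averaged over linkers. Arrays of the same protein sequence at different concentrations or buffers were also averaged together. Data originate from 3228 arrays in the Consortium for Functional Glycomics database, kept only where the protein sequence was available.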
# [2] = biological target: Gal(b1-3)GlcNAc6S
# Procedure, shortened: as §1
# [3] = biological target: Gal(b1-3)[Fuc(a1-4)]GlcNAc
# Procedure, shortened: as §1
# [4] = biological target: Gal(b1-3)[Fuc(a1-4)]GlcNAc(b1-2)Man
# Procedure, shortened: as §1
# [5] = biological target: Gal(b1-3)[Fuc(a1-4)]GlcNAc(b1-2)Man(a1-3)[Gal(b1-3)[Fuc(a1-4)]GlcNAc(b1-2)Man(a1-6)]Man(b1-4)GlcNAc(b1-4)[Fuc(a1-6)]GlcNAc
# Procedure, shortened: as §1
# [6] = biological target: Gal(b1-3)[Fuc(a1-4)]GlcNAc(b1-3)Gal(b1-3)[Fuc(a1-4)]GlcNAc
# Procedure, shortened: as §1
# [7] = biological target: Gal(b1-3)[Fuc(a1-4)]GlcNAc(b1-3)Gal(b1-4)[Fuc(a1-3)]GlcNAc
# Procedure, shortened: as §1
# [8] = biological target: Gal(b1-3)[Fuc(a1-4)]GlcNAc(b1-6)GalNAc
# Procedure, shortened: as §1
# [9] = biological target: Gal(b1-3)[GlcNAc(b1-6)]GalNAc
# Procedure, shortened: as §1
# [10] = biological target: Gal(b1-3)[Neu5Ac(a2-6)]GalNAc
# Procedure, shortened: as §1
# [11] = biological target: Gal(b1-3)[Neu5Ac(a2-6)]GlcNAc(b1-4)Gal(b1-4)Glc
# Procedure, shortened: as §1
# [12] = biological target: Gal(b1-3)[Neu5Ac(b2-6)]GalNAc
# Procedure, shortened: as §1
# [13] = biological target: Gal(b1-4)Gal
# Procedure, shortened: as §1
# [14] = biological target: Gal(b1-4)GalNAc(a1-3)[Fuc(a1-2)]Gal(b1-4)GlcNAc
# Procedure, shortened: as §1
# [15] = biological target: Gal(b1-4)GalNAc(b1-3)[Fuc(a1-2)]Gal(b1-4)GlcNAc
# Procedure, shortened: as §1
# [16] = biological target: Gal(b1-4)Glc
# Procedure, shortened: as §1
# [17] = biological target: Gal(b1-4)Glc6S
# Procedure, shortened: as §1
# [18] = biological target: Gal(b1-4)GlcNAc
# Procedure, shortened: as §1
# [19] = biological target: Gal(b1-4)GlcNAc(a1-6)Gal(b1-4)GlcNAc
# Procedure, shortened: as §1
# [20] = biological target: Gal(b1-4)GlcNAc(b1-2)Man
# Procedure, shortened: as §1
# [21] = biological target: Gal(b1-4)GlcNAc(b1-2)Man(a1-3)Man(b1-4)GlcNAc(b1-4)GlcNAc
# Procedure, shortened: as §1
# [22] = biological target: Gal(b1-4)GlcNAc(b1-2)Man(a1-3)[Gal(b1-4)GlcNAc(b1-2)Man(a1-6)]Man(b1-4)GlcNAc(b1-4)GlcNAc
# Procedure, shortened: as §1
# [23] = biological target: Gal(b1-4)GlcNAc(b1-2)Man(a1-3)[Gal(b1-4)GlcNAc(b1-2)Man(a1-6)]Man(b1-4)GlcNAc(b1-4)[Fuc(a1-6)]GlcNAc
# Procedure, shortened: as §1
# [24] = biological target: Gal(b1-4)GlcNAc(b1-2)Man(a1-3)[Gal(b1-4)GlcNAc(b1-2)Man(a1-6)][Gal(b1-4)GlcNAc(b1-4)]Man(b1-4)GlcNAc(b1-4)[Fuc(a1-6)]GlcNAc
# Procedure, shortened: as §1
# [25] = biological target: Gal(b1-4)GlcNAc(b1-2)Man(a1-3)[Gal(b1-4)GlcNAc(b1-2)Man(a1-6)][GlcNAc(b1-4)]Man(b1-4)GlcNAc(b1-4)[Fuc(a1-6)]GlcNAc
# Procedure, shortened: as §1
# [26] = biological target: Gal(b1-4)GlcNAc(b1-2)Man(a1-3)[GlcNAc(b1-2)Man(a1-6)]Man(b1-4)GlcNAc(b1-4)GlcNAc
# Procedure, shortened: as §1
# [27] = biological target: Gal(b1-4)GlcNAc(b1-2)Man(a1-3)[GlcNAc(b1-4)][Gal(b1-4)GlcNAc(b1-2)Man(a1-6)]Man(b1-4)GlcNAc(b1-4)GlcNAc
# Procedure, shortened: as §1
# [28] = biological target: Gal(b1-4)GlcNAc(b1-2)Man(a1-3)[Man(a1-6)]Man(b1-4)GlcNAc(b1-4)GlcNAc
# Procedure, shortened: as §1
# [29] = biological target: Gal(b1-4)GlcNAc(b1-2)Man(a1-6)Man(b1-4)GlcNAc(b1-4)GlcNAc
# Procedure, shortened: as §1
# [30] = biological target: Gal(b1-4)GlcNAc(b1-2)Man(a1-6)[GlcNAc(b1-2)Man(a1-3)]Man(b1-4)GlcNAc(b1-4)GlcNAc
# Procedure, shortened: as §1
# [31] = biological target: Gal(b1-4)GlcNAc(b1-2)Man(a1-6)[Man(a1-3)]Man(b1-4)GlcNAc(b1-4)GlcNAc
# Procedure, shortened: as §1
# [32] = biological target: Gal(b1-4)GlcNAc(b1-2)[Gal(b1-4)GlcNAc(b1-4)]Man(a1-3)[Gal(b1-4)GlcNAc(b1-2)Man(a1-6)]Man(b1-4)GlcNAc(b1-4)GlcNAc
# Procedure, shortened: as §1
# [33] = biological target: Gal(b1-4)GlcNAc(b1-2)[Gal(b1-4)GlcNAc(b1-4)]Man(a1-3)[Gal(b1-4)GlcNAc(b1-2)[Gal(b1-4)GlcNAc(b1-6)]Man(a1-6)]Man(b1-4)GlcNAc(b1-4)GlcNAc
# Procedure, shortened: as §1
# [34] = biological target: Gal(b1-4)GlcNAc(b1-2)[Gal(b1-4)GlcNAc(b1-4)]Man(a1-3)[GlcNAc(b1-4)][Gal(b1-4)GlcNAc(b1-2)Man(a1-6)]Man(b1-4)GlcNAc(b1-4)GlcNAc
# Procedure, shortened: as §1
# [35] = biological target: Gal(b1-4)GlcNAc(b1-2)[Gal(b1-4)GlcNAc(b1-4)]Man(a1-3)[GlcNAc(b1-4)][Gal(b1-4)GlcNAc(b1-2)[Gal(b1-4)GlcNAc(b1-6)]Man(a1-6)]Man(b1-4)GlcNAc(b1-4)GlcNAc
# Procedure, shortened: as §1
# [36] = biological target: Gal(b1-4)GlcNAc(b1-2)[Gal(b1-4)GlcNAc(b1-6)]Man(a1-6)[Gal(b1-4)GlcNAc(b1-2)Man(a1-3)]Man(b1-4)GlcNAc(b1-4)GlcNAc
# Procedure, shortened: as §1
# [37] = biological target: Gal(b1-4)GlcNAc(b1-2)[Gal(b1-4)GlcNAc(b1-6)]Man(a1-6)[Gal(b1-4)GlcNAc(b1-2)Man(a1-3)]Man(b1-4)GlcNAc(b1-4)[Fuc(a1-6)]GlcNAc
# Procedure, shortened: as §1
# [38] = biological target: Gal(b1-4)GlcNAc(b1-2)[Gal(b1-4)GlcNAc(b1-6)]Man(a1-6)[GlcNAc(b1-4)][Gal(b1-4)GlcNAc(b1-2)Man(a1-3)]Man(b1-4)GlcNAc(b1-4)GlcNAc
# Procedure, shortened: as §1
# [39] = biological target: Gal(b1-4)GlcNAc(b1-2)[Gal(b1-4)GlcNAc(b1-6)]Man(a1-6)[GlcNAc(b1-4)][Gal(b1-4)GlcNAc(b1-2)[Gal(b1-4)GlcNAc(b1-4)]Man(a1-3)]Man(b1-4)GlcNAc(b1-4)[Fuc(a1-6)]GlcNAc
# Procedure, shortened: as §1
# [40] = biological target: Gal(b1-4)GlcNAc(b1-3)Gal(b1-3)GalNAc
# Procedure, shortened: as §1
# [41] = biological target: Gal(b1-4)GlcNAc(b1-3)Gal(b1-3)GlcNAc
# Procedure, shortened: as §1
# [42] = biological target: Gal(b1-4)GlcNAc(b1-3)Gal(b1-4)Glc
# Procedure, shortened: as §1
# [43] = biological target: Gal(b1-4)GlcNAc(b1-3)Gal(b1-4)GlcNAc
# Procedure, shortened: as §1
# [44] = biological target: Gal(b1-4)GlcNAc(b1-3)Gal(b1-4)GlcNAc(b1-2)Man(a1-3)[Gal(b1-4)GlcNAc(b1-3)Gal(b1-4)GlcNAc(b1-2)Man(a1-6)]Man(b1-4)GlcNAc(b1-4)GlcNAc
# Procedure, shortened: as §1
# [45] = biological target: Gal(b1-4)GlcNAc(b1-3)Gal(b1-4)GlcNAc(b1-2)Man(a1-3)[Gal(b1-4)GlcNAc(b1-3)Gal(b1-4)GlcNAc(b1-2)Man(a1-6)]Man(b1-4)GlcNAc(b1-4)[Fuc(a1-6)]GlcNAc
# Procedure, shortened: as §1
binder,measurement,setting,value
Aap brpt (Staphylococcus epidermidis) (protein) VDGDPITSTEEIPFDKKREFDPNLAPGTEKVVQKGEPGTKTITTPTTKNPLTGEKVGEGEPTEKITKQPVDEIVHYGGEEIKTGHKDEFDPNAPKGSQTTQPGKPGVKNPDTGEVVTPPVDDVTKYGPVDGDPITSTEEIPFDKKREFDPNLAPGTEKVVQKGEPGTKTITTPTTKNPLTGEKVGEGEPTEKITKQPVDEIVHYGGEEIKPGHKDEFDPNAPKGSQEDVPGKPGVKNPDTGEVVTPPVDDVTKYGPVDGDSITSTEEIPFDKKREFDPNLAPGTEKVVQKGEPGTKTITTPTTKNPLTGEKVGEGEPTEKITKQPVDEIVHYGGEQIPQGHKDEFDPNAPVDSKTEVPGKPGVKNPDTGEVVTPPVDDVTKYGPVDGDSITSTEEIPFDKKREFDPNLAPGTEKVVQKGEPGTKTITTPTTKNPLTGEKVGEGKSTEKVTKQPVDEIVEYGPTK,glycan array binding signal (z-score),[1],-0.991
same,glycan array binding signal (z-score),[2],-0.16
same,glycan array binding signal (z-score),[3],-1.71
same,glycan array binding signal (z-score),[4],1.38
same,glycan array binding signal (z-score),[5],0.433
same,glycan array binding signal (z-score),[6],-0.417
same,glycan array binding signal (z-score),[7],0.435
same,glycan array binding signal (z-score),[8],-0.864
same,glycan array binding signal (z-score),[9],1.05
same,glycan array binding signal (z-score),[10],0.106
same,glycan array binding signal (z-score),[11],0.993
same,glycan array binding signal (z-score),[12],-0.314
same,glycan array binding signal (z-score),[13],-0.164
same,glycan array binding signal (z-score),[14],-0.648
same,glycan array binding signal (z-score),[15],1.01
same,glycan array binding signal (z-score),[16],0.647
same,glycan array binding signal (z-score),[17],-0.697
same,glycan array binding signal (z-score),[18],-1.05
same,glycan array binding signal (z-score),[19],-0.185
same,glycan array binding signal (z-score),[20],-0.301
same,glycan array binding signal (z-score),[21],-0.208
same,glycan array binding signal (z-score),[22],-0.887
same,glycan array binding signal (z-score),[23],0.809
same,glycan array binding signal (z-score),[24],-0.738
same,glycan array binding signal (z-score),[25],0.246
same,glycan array binding signal (z-score),[26],-0.003
same,glycan array binding signal (z-score),[27],-1.94
same,glycan array binding signal (z-score),[28],-0.706
same,glycan array binding signal (z-score),[29],-0.494
same,glycan array binding signal (z-score),[30],0.331
same,glycan array binding signal (z-score),[31],0.547
same,glycan array binding signal (z-score),[32],0.146
same,glycan array binding signal (z-score),[33],0.481
same,glycan array binding signal (z-score),[34],0.586
same,glycan array binding signal (z-score),[35],-0.768
same,glycan array binding signal (z-score),[36],-1.94
same,glycan array binding signal (z-score),[37],1.37
same,glycan array binding signal (z-score),[38],0.189
same,glycan array binding signal (z-score),[39],-1.46
same,glycan array binding signal (z-score),[40],-0.487
same,glycan array binding signal (z-score),[41],-0.329
same,glycan array binding signal (z-score),[42],-0.147
same,glycan array binding signal (z-score),[43],0.624
same,glycan array binding signal (z-score),[44],3.34
same,glycan array binding signal (z-score),[45],0.377

# Reformatted: entries from further up
binder	measurement	setting	value
Aap brpt (Staphylococcus epidermidis) (protein) VDGDPITSTEEIPFDKKREFDPNLAPGTEKVVQKGEPGTKTITTPTTKNPLTGEKVGEGEPTEKITKQPVDEIVHYGGEEIKTGHKDEFDPNAPKGSQTTQPGKPGVKNPDTGEVVTPPVDDVTKYGPVDGDPITSTEEIPFDKKREFDPNLAPGTEKVVQKGEPGTKTITTPTTKNPLTGEKVGEGEPTEKITKQPVDEIVHYGGEEIKPGHKDEFDPNAPKGSQEDVPGKPGVKNPDTGEVVTPPVDDVTKYGPVDGDSITSTEEIPFDKKREFDPNLAPGTEKVVQKGEPGTKTITTPTTKNPLTGEKVGEGEPTEKITKQPVDEIVHYGGEQIPQGHKDEFDPNAPVDSKTEVPGKPGVKNPDTGEVVTPPVDDVTKYGPVDGDSITSTEEIPFDKKREFDPNLAPGTEKVVQKGEPGTKTITTPTTKNPLTGEKVGEGKSTEKVTKQPVDEIVEYGPTK	glycan array binding signal (z-score)	[2]	-0.16
same	glycan array binding signal (z-score)	[3]	-1.71
same	glycan array binding signal (z-score)	[4]	1.38
